PubChem BioAssay AID652054 (National Center for Advancing Translational Sciences (NCATS), 2013)
About 9,100 (2.5%) of roughly 360,000 compounds were called active. The shares of active, inactive and inconclusive entries below differ from those in the screen. Cut-off read from the data, not from the text of the source: active = max response below about -50%; inconclusive = no clear call, values can overlap the other calls; inactive = above that.

By UniProt entry, the sequences of proteins in these tests, tags left out.
UniProt P35462, whole entry, looked up: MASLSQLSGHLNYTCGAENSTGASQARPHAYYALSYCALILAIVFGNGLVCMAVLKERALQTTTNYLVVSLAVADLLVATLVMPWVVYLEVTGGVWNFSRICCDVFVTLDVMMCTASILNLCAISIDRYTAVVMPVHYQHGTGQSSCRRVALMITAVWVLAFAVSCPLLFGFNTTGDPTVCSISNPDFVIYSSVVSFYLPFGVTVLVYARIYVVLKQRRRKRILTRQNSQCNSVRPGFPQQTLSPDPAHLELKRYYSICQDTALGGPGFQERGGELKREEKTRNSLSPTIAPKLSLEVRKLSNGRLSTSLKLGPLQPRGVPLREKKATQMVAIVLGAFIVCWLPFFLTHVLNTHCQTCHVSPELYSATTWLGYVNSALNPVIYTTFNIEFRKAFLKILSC

The molecules below were run against D(3) dopamine receptor (Homo sapiens) (UniProt P35462) (assay: qHTS of D3 Dopamine Receptor Antagonist: qHTS). Settings: D3R cells, DiscoveRx beta-arrestin luminescence, antagonist mode; hits give low values.
Outline: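 Cells plated overnight at 1500 cells/well, then exposed to library compounds with dopamine controls for 90 minutes at 37 degrees C. DiscoveRx reagent added for 30–60 minutes at room temperature; luminescence read, quantitative HTS format.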
% is set by controls: 0 for no effect and ±100 for the full control effect.

Structure (SMILES) | max response, negative = inhibition
Cc1noc(C)c1S(=O)(=O)N1CCN(Cc2ccc3c(c2)OCO3)CC1 | inconclusive: -35%
CC(C)N(CCCNC(=O)c1nn(C)c2c1CS(=O)(=O)c1ccccc1-2)Cc1ccccc1 | inconclusive: -43.9%
CN(C)c1ncnc2c1ncn2[C@H]1CN(Cc2cccnc2)C[C@@H](CO)O1 | inconclusive: -35.9%
Cc1ccc(-c2noc(CSc3nnc(-c4cccs4)n3C)n2)cc1 | inconclusive: -33.1%
CCC1(c2ccccc2)NC(=O)N(CC(=O)N2CCN(S(=O)(=O)c3ccccc3)CC2)C1=O (stereo unspecified) | inactive: 1.84%
Cc1ccc(-n2c(=O)[nH]c3cc(C(=O)NC4CCN(Cc5ccccc5)CC4)ccc3c2=O)cc1 | active: -92.9%
CCOc1ccccc1/C=N/NC(=O)c1nnn(-c2nonc2N)c1CN1CCC(C)CC1 | inconclusive: -33.3%
Cn1c2c(c(=O)n(C)c1=O)C(c1ccc(C(F)(F)F)cc1)CC(=O)N2 (stereo unspecified) | inconclusive: -33%
NC(=S)N=Nc1ccc(NN=C(N)N)cc1 | inconclusive: -37.9%
COc1ccc(-c2oc3c(c2C(=O)OCCO)C(OCCO)CCC3)cc1 (stereo unspecified) | inconclusive: -31%
COc1ccc(C2(C(=O)Nc3ccc(C)c(C)c3)CCOCC2)cc1 | inconclusive: -39.6%
CCC1CN(C(=O)N2CCC(C(=O)NCCc3ccccc3)CC2)c2ccccc2O1 (stereo unspecified) | inactive: 3.32%
CC1Cn2c(nc3sc4c(c3c2=O)CC(C)(C)OC4)N1CCO (stereo unspecified) | inactive: 14.8%
CCN=C(Nc1ccc(Cl)cc1)c1cccnc1 | inconclusive: -44.2%
COc1cc(C2C(C(C)=O)=C(O)C(=O)N2c2ccc(Br)cn2)ccc1O (stereo unspecified) | inconclusive: -40.9%
CN(c1ccccc1)S(=O)(=O)c1ccc(NC(=S)NC(=O)C2CC2)cc1 | inconclusive: -31.3%
O=C(/C=C\c1cn(-c2ccccc2)nc1-c1ccccc1)Nc1nccs1 | inactive: 31.7%
COc1ccc(-c2csc(C(O)(c3ccccc3)C(F)(F)F)n2)cc1 (stereo unspecified) | inactive: 18.8%
COc1c(Cl)cc(Cl)cc1CNCCNCCO | inconclusive: -33.4%
COc1ccc(CCNC(=O)CC(NS(=O)(=O)c2ccc(NC(C)=O)cc2)C(C)C)cc1OC (stereo unspecified) | inconclusive: -44.1%
COc1ccc(Cc2nnc(SCC(=O)N3CCc4ccccc4C3)o2)cc1 | inconclusive: -31.4%

Of the compounds above, two have an aryl thioether with sulfur outside any ring:
Structure (SMILES) | max response, negative = inhibition
Cc1ccc(-c2noc(CSc3nnc(-c4cccs4)n3C)n2)cc1 | inconclusive: -33.1%
COc1ccc(Cc2nnc(SCC(=O)N3CCc4ccccc4C3)o2)cc1 | inconclusive: -31.4%

Additional results.

Structure (SMILES) | max response, negative = inhibition
COc1ccccc1N1CCN(C2CCCN(S(=O)(=O)c3ccccc3)C2)CC1 (stereo unspecified) | inconclusive: -39.5%
Cc1ccc2nc(NC(=O)CN3C(=O)NC4(CCCC4)C3=O)sc2c1 | inactive: -16.2%
Nc1ccc(S(=O)(=O)NN=CC=Cc2ccccc2[N+](=O)[O-])cc1 | active: -65.2%
O=C(Cn1c2[n+](c3ccc(C(F)(F)F)cc31)CCCCC2)c1ccc2c(c1)OCCO2 | inconclusive: -34.2%
CC(C)(C)C(=O)N1CCC[C@H]1C(O)(c1ccccc1)c1ccccc1 | inconclusive: -32.2%
O=C(NCc1ccco1)c1cc(S(=O)(=O)N2CCCc3ccccc32)ccc1Cl | inactive: -22.6%
CN(C)CC(=O)Nc1ccc2c(c1)[C@H]1C[C@H](CC(=O)NCc3ccc4c(c3)OCO4)O[C@H](CO)[C@H]1O2 | inactive: -19.6%
CCOC(=O)C1CCCN(c2c(NCc3ccco3)c(=O)c2=O)C1 (stereo unspecified) | inconclusive: -46.1%
CC(NC(=O)C1CCC(CNc2c(N3CCOCC3)c(=O)c2=O)CC1)c1ccccc1 (stereo unspecified) | inconclusive: -41%
O=C(COC(=O)CC1CC2CCC1C2)Nc1cc([N+](=O)[O-])ccc1F (stereo unspecified) | inconclusive: -38.6%
CCN1C=C(Cc2ccc(F)cc2)C2=C(C1)C(c1ccc(F)cc1)C(C#N)=C(N)O2 (stereo unspecified) | inconclusive: -33%
O=C(OCc1ccccc1)N1CCC2CC1c1cc(Cl)ccc12 (stereo unspecified) | inconclusive: -46.2%
CNC(=S)N1N=C(c2ccccc2)CC1c1ccc(OC)c(OC)c1 (stereo unspecified) | inactive: -8.36%
Cc1c(/C=N/NC(=O)c2ccc(O)cc2)c2ccccn2c1C(=O)c1ccc(F)cc1 | inactive: -28.2%
CC(=O)C[C@@H](O)CC(=O)[C@@H]1OC(=O)CCCCCCCc2ccccc21 | inconclusive: -45.6%
Cc1ccc(NC(=S)NNC(=S)Nc2cccc(C(F)(F)F)c2)cc1 | inactive: -28%
O=[N+]([O-])c1ccccc1OCC(O)CN1CCN(CC(O)COc2ccccc2[N+](=O)[O-])CC1 (stereo unspecified) | active: -93.5%
O=C(C[n+]1ccccc1)N/N=C/c1cc(Br)ccc1F | inconclusive: -32.7%
CCOC(=O)CNC(=O)N1CCc2ccc(NC(=O)c3ccccc3OC)cc2C1 | inconclusive: -44.6%
CC1=C(C(N)=O)C(c2ccc(Br)cc2)n2nc(CCCO)nc2N1 (stereo unspecified) | inactive: 17.4%
